Measured values taken from article PMC12326010, “Substrate accessibility regulation of human TopIIa decatenation by cohesin” (Nature Communications, 2025).
Results are given in words; binding and its absence hold for the method and conditions named. Some entries that bind do so weakly or less than the wild type. Tags and fused reporters may be left off the sequences shown.

By UniProt entry, the sequences of proteins in these tests, tags left out.
UniProt Q9UQE7: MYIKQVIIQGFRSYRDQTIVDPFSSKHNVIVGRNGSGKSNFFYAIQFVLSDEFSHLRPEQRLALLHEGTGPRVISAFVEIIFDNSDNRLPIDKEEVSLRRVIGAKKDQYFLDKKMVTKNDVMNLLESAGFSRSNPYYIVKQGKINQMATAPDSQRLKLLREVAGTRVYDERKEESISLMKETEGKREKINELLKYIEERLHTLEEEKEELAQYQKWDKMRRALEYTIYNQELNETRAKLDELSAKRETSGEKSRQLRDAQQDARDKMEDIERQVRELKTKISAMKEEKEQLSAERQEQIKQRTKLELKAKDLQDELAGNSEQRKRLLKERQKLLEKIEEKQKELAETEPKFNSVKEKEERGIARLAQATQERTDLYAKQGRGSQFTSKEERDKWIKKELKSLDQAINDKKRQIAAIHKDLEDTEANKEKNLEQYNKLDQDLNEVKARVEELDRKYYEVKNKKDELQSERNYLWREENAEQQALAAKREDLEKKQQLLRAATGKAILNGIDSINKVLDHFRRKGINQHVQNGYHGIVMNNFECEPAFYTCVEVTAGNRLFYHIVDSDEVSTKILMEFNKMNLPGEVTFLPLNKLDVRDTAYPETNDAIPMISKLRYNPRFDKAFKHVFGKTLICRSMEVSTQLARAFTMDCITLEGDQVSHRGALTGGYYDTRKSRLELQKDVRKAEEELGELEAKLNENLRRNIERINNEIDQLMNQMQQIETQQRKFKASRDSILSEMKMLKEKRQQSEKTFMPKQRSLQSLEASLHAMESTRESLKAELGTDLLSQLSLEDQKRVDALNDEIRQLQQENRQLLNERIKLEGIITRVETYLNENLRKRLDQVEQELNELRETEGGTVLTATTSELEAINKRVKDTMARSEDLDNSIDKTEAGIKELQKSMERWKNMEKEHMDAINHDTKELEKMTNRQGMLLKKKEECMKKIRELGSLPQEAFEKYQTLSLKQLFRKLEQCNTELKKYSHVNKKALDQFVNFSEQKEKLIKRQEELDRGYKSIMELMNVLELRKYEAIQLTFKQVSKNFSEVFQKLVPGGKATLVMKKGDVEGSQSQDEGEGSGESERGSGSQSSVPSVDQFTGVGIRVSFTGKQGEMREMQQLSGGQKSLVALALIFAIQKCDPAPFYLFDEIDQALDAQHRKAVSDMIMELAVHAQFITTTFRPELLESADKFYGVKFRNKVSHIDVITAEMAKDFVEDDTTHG

Molecular target: T1, Human cohesin subunit STAG1 with C-terminal 3C-ybbr-tev-strepII tag (human) (UniProt Q8WVM7)
T1 sequence: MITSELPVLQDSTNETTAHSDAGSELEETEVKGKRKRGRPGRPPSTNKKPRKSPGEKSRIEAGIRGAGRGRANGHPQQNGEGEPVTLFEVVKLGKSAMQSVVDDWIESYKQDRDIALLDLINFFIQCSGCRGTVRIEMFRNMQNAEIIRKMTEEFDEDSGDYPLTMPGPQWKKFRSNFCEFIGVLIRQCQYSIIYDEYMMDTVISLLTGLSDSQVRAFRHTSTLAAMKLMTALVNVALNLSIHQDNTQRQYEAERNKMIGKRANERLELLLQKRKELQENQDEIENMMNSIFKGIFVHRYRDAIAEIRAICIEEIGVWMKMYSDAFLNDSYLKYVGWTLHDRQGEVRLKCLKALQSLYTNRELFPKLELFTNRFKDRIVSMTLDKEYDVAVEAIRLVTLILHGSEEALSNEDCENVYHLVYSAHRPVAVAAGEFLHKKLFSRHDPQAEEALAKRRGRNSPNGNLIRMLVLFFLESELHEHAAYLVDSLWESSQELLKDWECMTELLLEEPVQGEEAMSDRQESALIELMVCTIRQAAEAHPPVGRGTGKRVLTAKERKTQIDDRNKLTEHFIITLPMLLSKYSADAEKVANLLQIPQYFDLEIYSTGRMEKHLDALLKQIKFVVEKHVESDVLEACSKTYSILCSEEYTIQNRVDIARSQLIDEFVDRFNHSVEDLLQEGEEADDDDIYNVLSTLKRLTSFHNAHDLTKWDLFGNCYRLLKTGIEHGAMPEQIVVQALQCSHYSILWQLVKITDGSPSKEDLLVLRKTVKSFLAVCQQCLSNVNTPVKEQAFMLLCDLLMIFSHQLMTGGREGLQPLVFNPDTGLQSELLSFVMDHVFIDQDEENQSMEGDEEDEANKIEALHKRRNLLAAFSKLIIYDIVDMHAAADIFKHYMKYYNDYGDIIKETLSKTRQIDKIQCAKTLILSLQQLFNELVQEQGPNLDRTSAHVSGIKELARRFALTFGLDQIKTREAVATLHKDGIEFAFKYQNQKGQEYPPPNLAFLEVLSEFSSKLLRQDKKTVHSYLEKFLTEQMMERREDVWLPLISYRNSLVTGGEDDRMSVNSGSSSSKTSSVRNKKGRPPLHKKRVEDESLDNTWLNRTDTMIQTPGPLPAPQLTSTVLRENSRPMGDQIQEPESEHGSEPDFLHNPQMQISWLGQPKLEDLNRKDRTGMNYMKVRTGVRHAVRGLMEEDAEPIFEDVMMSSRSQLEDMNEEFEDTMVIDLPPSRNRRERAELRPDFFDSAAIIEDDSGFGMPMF
Assay: co-purification (Strep affinity, heparin, size exclusion); cohesin STAG1 tetramer co-expressed in insect cells; lysate loaded on StrepTrap HP (StrepII on STAG1), eluted with desthiobiotin, HiTrap Heparin, Superose 6; 20 mM HEPES pH 8, 300 mM KCl, 5 mM MgCl2, 1 mM DTT, 10% glycerol

binding: binds
Substance: Human cohesin subunit SMC3 with C-terminal 3C-His10 tag (from UniProt Q9UQE7 1-1217)
